{"source": "patent US9409983B2", "about": "“Methods and compositions involving PBEF inhibitors for lung inflammation conditions and diseases” (The Board of Trustess of the University of Illinois, priority 2009, dated 2016)", "test_system": "C57BL/6 mice", "assay": "rhPBEF challenge in limited ventilator-induced lung injury model (VILIa, 30 ml/kg)", "assay_type": "in vivo, mouse", "procedure": "The first VILI model was designed to produce limited lung injury (VILIa, tidal volume 30 ml/kg), thus allowing assessment of potential synergy with rhPBEF challenge. Male C57BL/6J B6 mice were anesthetized with ketamine/acepromazine, intubated and administered rhPBEF (20 μg/mouse) via an intratracheal (IT) route ˜30 min before ventilator placement (room air, tidal volume 30 ml/kg, 65 breaths/minute, 0 cm H2O PEEP) for 4 hr as previously described (Nonas et al., 2007; Moitra et al., 2007). Groups included a spontaneous breathing group (SB), a spontaneous breathing group challenged with rhPBEF (SB-rhPBEF), a high tidal ventilation group (VILIa), and a high tidal ventilation group with rhPBEF challenge (VILIa-rhPBEF) (n=4-6 all groups).\nBAL fluid recovered as we previously described was used for multiple assays including total BAL protein, and BAL cell differentials (Peng et al., 2004). Tissue albumin content was assessed as previously described (Nonas et al., 2007). Cytokine levels in BAL fluid (IL-1β, IL-6, KC, MIP2, TNF-α) were analyzed by multiplex assays (Bio-Rad, Hercules, Calif., USA). BAL PBEF levels were assayed by a C-terminal ELISA (Phoenix Pharmaceuticals Inc. Belmont, Calif.) and analyzed using the SoftmaxPRO software (Molecular Devices Corp). (See Supplemental Methods).\nWe utilized two experimental models of ventilator-induce lung injury in these experiments. Our first approach (VILIa) utilized a VILI protocol with a tidal volume of 30 ml/kg designed to produce limited lung injury in order to allow assessment of potential synergism between delivered PBEF and mechanical ventilation-induced lung injury. Male C57BL/6J mice (8-12 wk old, 24.7±2.0 g) were weighed, anesthetized with ketamine/acepromazine, intubated using a 20 gauge catheter (Medex, Inc, Carlsbad, Calif.) and administered recombinant PBEF (20 μg/mouse in 1.5 μl water per gram body weight or vehicle equal volumes of water) via an intratracheal (IT) route ˜30 min before being placed on mechanical ventilation as we have previously described (Peng et al., 2004). Mice were then connected to Harvard Apparatus ventilator (Boston, Mass.) at room air, tidal volume of 30 ml/kg, 65 breaths/minute, and positive expiratory pressure (PEEP) 0 cm H2O for 4 hr. […] Normal saline (0.2 cc) was given via intraperitoneal injection at the beginning and 2 hours later to all ventilated mice and peak inspiratory pressure was monitored continuously. […]\nMice underwent bronchioalveolar lavage (BAL) of both lungs with Hank's balanced salt solution (1 mL/mouse), and the recovered BAL fluid was used for assays as we have previously described (Peng et al., 2004). Total protein was measured using the Bio-Rad DC Protein Assay (Bio-Rad Laboratories, Hercules, Calif.) (Peng et al., 2004). Protein results were expressed as mg/ml to allow for comparison to other studies. […] The BAL cells were resuspended in Hank's balanced salt solution and counted using a hemacytometer using standard techniques.\nRe-suspended BAL cells from lung lavage were centrifuged using a Shandon Cytospin-2 at 600 RPM for 15 min, fixed by air-drying, and stained with Diff-Quik dye for differential counts (Peng et al., 2004). Stained cell slides were evaluated and differentially counted for each individual animal (lymphocyte, neutrophil or a macrophage). […]", "key": {"[1]": {"conditions": "after 4 hours of mechanical ventilation"}}, "data": [{"substance": "rhPBEF: Recombinant human soluble PBEF/visfatin, a 52 kDa protein containing 465 amino acid residues, purchased from PeproTech", "values": [{"measurement": "PIP (peak inspiratory pressure): 0 hrs", "setting": "0 hrs", "result": "22.0 ± 1.8", "unit": "mmHg"}, {"measurement": "PIP (peak inspiratory pressure): 4 hrs", "setting": "4 hrs", "result": "23.4 ± 1.6", "unit": "mmHg"}, {"measurement": "PCO2", "setting": "[1]", "result": "28.6 ± 3.5", "unit": "mmHg"}, {"measurement": "PO2", "setting": "[1]", "result": "97.8 ± 7.5", "unit": "mmHg"}, {"measurement": "pH", "setting": "[1]", "result": "7.38 ± 0.07"}]}]}
